Laboratory results from publication PMC7450122.
Results are given in words; binding and its absence hold for the method and conditions named. For part of these data: Binding seen in cells or lysates may run through a third protein. Some results given as binding are weak or reduced against the parent protein; the word gives no strength. For part of these data: Where a sequence is shown, tags or fusion partners need not be part of it. Values belong to the substance of their own block, whether it stands above or below them.

By UniProt entry, the sequences of proteins in these tests, tags left out.
UniProt Q04206: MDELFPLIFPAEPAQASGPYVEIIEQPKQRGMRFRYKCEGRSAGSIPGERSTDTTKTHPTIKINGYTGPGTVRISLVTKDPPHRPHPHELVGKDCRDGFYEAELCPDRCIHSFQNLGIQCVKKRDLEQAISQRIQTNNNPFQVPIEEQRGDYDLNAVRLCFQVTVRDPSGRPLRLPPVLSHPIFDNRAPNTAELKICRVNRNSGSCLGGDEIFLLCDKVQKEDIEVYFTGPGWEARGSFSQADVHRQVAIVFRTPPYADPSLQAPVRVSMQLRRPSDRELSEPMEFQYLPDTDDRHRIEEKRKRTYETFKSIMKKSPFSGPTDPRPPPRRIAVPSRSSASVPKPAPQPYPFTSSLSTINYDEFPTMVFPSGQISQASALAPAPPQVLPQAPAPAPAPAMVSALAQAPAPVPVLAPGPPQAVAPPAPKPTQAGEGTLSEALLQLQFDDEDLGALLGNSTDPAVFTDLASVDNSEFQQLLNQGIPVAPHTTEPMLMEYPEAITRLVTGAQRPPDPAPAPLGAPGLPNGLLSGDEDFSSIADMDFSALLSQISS
UniProt Q9UER7: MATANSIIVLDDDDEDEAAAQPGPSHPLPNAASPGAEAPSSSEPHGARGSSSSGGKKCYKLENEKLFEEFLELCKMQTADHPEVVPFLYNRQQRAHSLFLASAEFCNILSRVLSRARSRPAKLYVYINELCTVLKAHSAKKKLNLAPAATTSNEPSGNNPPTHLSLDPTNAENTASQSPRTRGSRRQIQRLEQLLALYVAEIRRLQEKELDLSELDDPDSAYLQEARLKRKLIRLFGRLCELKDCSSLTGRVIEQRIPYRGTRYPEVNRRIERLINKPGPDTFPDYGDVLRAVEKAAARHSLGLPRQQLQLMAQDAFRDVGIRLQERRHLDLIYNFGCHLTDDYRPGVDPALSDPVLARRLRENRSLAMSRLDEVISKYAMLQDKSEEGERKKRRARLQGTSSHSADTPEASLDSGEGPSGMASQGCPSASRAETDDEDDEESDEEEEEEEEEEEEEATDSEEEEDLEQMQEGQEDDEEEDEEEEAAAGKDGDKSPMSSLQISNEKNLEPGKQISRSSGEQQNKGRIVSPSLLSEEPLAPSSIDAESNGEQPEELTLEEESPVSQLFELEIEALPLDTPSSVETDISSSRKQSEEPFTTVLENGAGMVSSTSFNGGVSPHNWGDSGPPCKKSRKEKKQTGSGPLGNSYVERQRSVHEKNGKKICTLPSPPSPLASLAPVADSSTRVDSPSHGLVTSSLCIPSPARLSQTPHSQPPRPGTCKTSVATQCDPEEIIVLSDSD

Key:
[1] = molecular target: T1, USP7 peptide 753-770 (Ubl2 domain), parent peptide of the alanine scan; experiment: peptide or protein array; alanine-scanning SPOT arrays of selected 18-mer USP7 peptides; overlaid with GST-p65; anti-GST, quantified with a digital chemiluminescence scanner as percent of the unsubstituted parent peptide on the same array; less than 60% taken as important; both purified
T1 sequence (peptide): LDKALDELMDGDIIVFQK

[2] = molecular target: USP7 (deubiquitinase ubiquitin-specific peptidase 7), FLAG-tagged, wild type (UniProt Q93009); experiment: co-IP; HEK293T cells co-transfected; whole cell lysates in RIPA buffer; FLAG-tagged USP7 immunoprecipitated with anti-FLAG overnight at 4 °C, partner detected by Western blot (Fig. 2B-F, Fig. 3A)
[3] = molecular target: NF-kB p65 (RelA), expressed in HEK293T cells (UniProt Q04206); experiment: co-IP; HEK293T cells co-transfected; whole cell lysates in RIPA buffer; the partner of USP7 immunoprecipitated (anti-HA, anti-DAXX, anti-c-Rel, anti-RelB or anti-p65) overnight at 4 °C, USP7 detected by Western blot (Fig. 3B-E, Fig. 6C)
RelB-FLAG = molecular target: T2, RelB-FLAG (UniProt Q01201); experiment: as above
T2 sequence: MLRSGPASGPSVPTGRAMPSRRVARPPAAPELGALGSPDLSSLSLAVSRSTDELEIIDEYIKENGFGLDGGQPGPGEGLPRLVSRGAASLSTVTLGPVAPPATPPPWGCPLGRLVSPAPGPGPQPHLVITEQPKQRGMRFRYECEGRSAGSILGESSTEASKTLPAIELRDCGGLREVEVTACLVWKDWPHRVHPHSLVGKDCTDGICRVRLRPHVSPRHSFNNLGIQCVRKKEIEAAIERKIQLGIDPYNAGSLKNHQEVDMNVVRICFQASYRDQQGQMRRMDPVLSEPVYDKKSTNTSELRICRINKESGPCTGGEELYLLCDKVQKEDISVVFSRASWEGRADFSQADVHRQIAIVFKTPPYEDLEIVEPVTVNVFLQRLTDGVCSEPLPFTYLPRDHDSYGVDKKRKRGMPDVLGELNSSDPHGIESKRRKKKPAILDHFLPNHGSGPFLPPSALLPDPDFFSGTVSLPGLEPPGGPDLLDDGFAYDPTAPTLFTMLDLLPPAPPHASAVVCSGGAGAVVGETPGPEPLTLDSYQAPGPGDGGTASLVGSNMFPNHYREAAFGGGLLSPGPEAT

DAXX-FLAG = DAXX-FLAG (UniProt Q9UER7); experiment: as above
c-Rel-FLAG = molecular target: T3, c-Rel-FLAG (UniProt Q04864); experiment: as above
T3 sequence: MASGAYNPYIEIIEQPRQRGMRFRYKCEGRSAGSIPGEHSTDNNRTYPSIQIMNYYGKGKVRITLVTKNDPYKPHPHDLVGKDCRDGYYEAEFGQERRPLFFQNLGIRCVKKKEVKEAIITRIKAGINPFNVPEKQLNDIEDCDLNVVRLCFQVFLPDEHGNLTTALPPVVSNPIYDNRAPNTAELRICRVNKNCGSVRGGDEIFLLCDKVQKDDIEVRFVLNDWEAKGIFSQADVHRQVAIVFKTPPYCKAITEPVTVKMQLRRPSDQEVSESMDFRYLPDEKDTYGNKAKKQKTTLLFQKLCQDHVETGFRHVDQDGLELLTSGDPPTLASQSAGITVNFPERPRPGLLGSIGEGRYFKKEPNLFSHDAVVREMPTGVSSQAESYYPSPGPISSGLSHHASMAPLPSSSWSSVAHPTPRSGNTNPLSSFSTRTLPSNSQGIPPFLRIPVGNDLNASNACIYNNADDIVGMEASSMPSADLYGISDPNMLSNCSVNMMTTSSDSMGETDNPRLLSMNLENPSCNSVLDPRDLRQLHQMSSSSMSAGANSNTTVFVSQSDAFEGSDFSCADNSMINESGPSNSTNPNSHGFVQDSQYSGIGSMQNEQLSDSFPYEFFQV

binding [1]: binds
Substance: GST-p65, purified recombinant (from UniProt Q04206 1-551)

binding [2]: binds
Substance: NF-kB p65 (RelA), expressed in HEK293T cells (from UniProt Q04206 1-551)

binding [3]: binds
binding (RelB-FLAG): binds
binding (DAXX-FLAG): binds
binding (c-Rel-FLAG): binds
Substance: USP7 (deubiquitinase ubiquitin-specific peptidase 7), FLAG-tagged, wild type (from UniProt Q93009 1-1102) (enzyme)
